Data taken from the supplement of paper PMC4749390.
Where a name gives a salt, the structure may show the parent alone. The list shows a part of the results. Single values are uncertain here, since repeats match poorly.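 JEG3 cells stably carry tetracycline-induced wild-type human LRH-1, a heavily sumoylated nuclear receptor. APOC3 and MUC1 are SUMO-sensitive transcripts, raised by SUMO-less LRH-1 or UBC9 knockdown, measured by RT-qPCR against TBP and DMSO controls. A robust Z-score above +2 or below -2 marked a primary hit before toxicity and TBP filtering.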

System: JEG3 expressing hLRH-1
Assay: MUC1 transcript change (ddCt vs TBP and DMSO), Z-score over library; higher = higher MUC1 expression
Settings: 10 µM; time (hr): 24

Row | SMILES | MUC1 transcript change (Z-score)
1 | O=C(O)c1cc(N=Nc2ccc(S(=O)(=O)Nc3ccccn3)cc2)ccc1O [sulfasalazine] | 1.2
2 | CCCCC(=O)N(Cc1ccc(-c2ccccc2-c2nn[nH]n2)cc1)[C@H](C(=O)O)C(C)C [valsartan] | 0.399
3 | CCN1CCC(CNC(=O)c2cc(S(N)(=O)=O)ccc2OC)C1 (stereo not drawn) [sulpiride] | 0.00198
4 | O=C(O)Cc1ccc(-c2ccccc2)cc1 [felbinac] | 0.858
5 | COc1ccc(CCN(C)CCCC(C#N)(c2ccc(OC)c(OC)c2)C(C)C)cc1OC (racemic) [(±)-Verapamil hydrochloride] | 0.39
6 | COc1c(N2CCNC(C)C2)c(F)cc2c(=O)c(C(=O)O)cn(C3CC3)c12 (stereo not drawn) [gatifloxacin] | 0.114
7 | Cn1c(=O)c2c(ncn2C)n(C)c1=O [Caffeine] | -1.23
8 | NS(=O)(=O)c1cc(C2(O)NC(=O)c3ccccc32)ccc1Cl (stereo not drawn) [chlorthalidone] | -0.461
9 | CO/N=C(\C(=O)N[C@@H]1C(=O)N2C(C(=O)OC(C)OC(C)=O)=C(COC(N)=O)CS[C@H]12)c1ccco1 (stereo partly drawn) [cefuroxime axetil] | 0.363
10 | CSc1ccc2c(c1)C(N1CCN(C)CC1)Cc1ccccc1S2 (stereo not drawn) [Methiothepin mesylate] | -0.174
11 | OCc1ccccc1O [salicyl alcohol] | 1.12
12 | O=C(O)c1cc(O)c(O)c(O)c1 [gallic acid] | -0.577
13 | Cc1nc(O)c(C#N)cc1-c1ccncc1 [milrinone] | 0.88
14 | CC1=NN(c2ccccc2)C(=O)C1 [3-methyl-1-phenyl-2-pyrazolin-5-one (mci-186)] | 0.378
15 | CC(=O)Oc1cccc(C)c1 [meta-cresyl acetate] | 0.362
16 | Oc1c(Cl)cc(Cl)c(Cl)c1Cc1c(O)c(Cl)cc(Cl)c1Cl [hexachlorophene] | 0.618
17 | Nc1nc(N)c2nc(CNc3ccc(C(=O)NC(CCC(=O)O)C(=O)O)cc3)cnc2n1 (stereo not drawn) [Aminopterin] | 0.228
18 | FC(F)(F)COCC(F)(F)F [flurothyl] | 1.3
19 | C[C@@H]1CC2C3CCC4=CC(=O)C=C[C@]4(C)[C@@]3(F)[C@@H](O)C[C@]2(C)[C@@]1(O)C(=O)COP(=O)(O)O (stereo partly drawn) [dexamethasone sodium phosphate] | -0.419
20 | CCN[C@@H]1C[C@H](N)[C@@H](O[C@H]2OC(CN)=CC[C@H]2N)[C@H](O)[C@H]1O[C@H]1OC[C@](C)(O)[C@H](NC)[C@H]1O [netilmicin sulfate] | 0.0425
21 | N=C(N)c1ccc(N=NNc2ccc(C(=N)N)cc2)cc1 [diminazene aceturate] | 0.171
22 | Cc1c(O)c(=O)ccn1C [deferiprone] | -2.25
23 | C=CC1=C(C)c2cc3nc(cc4[nH]c(cc5[nH]c(cc1n2)c(C)c5C=C)c(C)c4CCC(=O)O)C(CCC(=O)O)=C3C [protoporphyrin ix] | -0.402
24 | CC(C(=O)O)c1ccc2c(c1)[nH]c1ccc(Cl)cc12 (stereo not drawn) [carprofen] | 0.715
25 | OC[C@@H](O)[C@H](O)[C@@H](O)[C@H](O)CO [sorbitol] | 0.124
26 | Nc1[nH]cnc2ncnc1-2 [adenine] | 0.76

From entry 7 as far as 9, copied from above:
Row | SMILES | MUC1 transcript change (Z-score)
7 | Cn1c(=O)c2c(ncn2C)n(C)c1=O [Caffeine] | -1.23
8 | NS(=O)(=O)c1cc(C2(O)NC(=O)c3ccccc32)ccc1Cl (stereo not drawn) [chlorthalidone] | -0.461
9 | CO/N=C(\C(=O)N[C@@H]1C(=O)N2C(C(=O)OC(C)OC(C)=O)=C(COC(N)=O)CS[C@H]12)c1ccco1 (stereo partly drawn) [cefuroxime axetil] | 0.363

Continuation.

Row | SMILES | MUC1 transcript change (Z-score)
27 | CC12CCC(=O)C=C1CCC1C2[C@@H](O)CC2(C)C1CC[C@]2(O)C(=O)COP(=O)(O)O (stereo partly drawn) [hydrocortisone sodium phosphate] | -0.83
28 | O=C(O)c1cc(O)nc(O)n1 [orotic acid] | -0.0954
29 | NC(=O)NS(=O)(=O)c1ccc(N)cc1 [sulfacarbamide] | -2.51
30 | O=C(O)c1ccc(S(=O)(=O)N(Cl)Cl)cc1 [halazone] | 1.71
31 | CC[n+]1c(-c2ccccc2)c2cc(N)ccc2c2ccc(N)cc21 [homidium bromide] | 1.14
32 | Cc1cc(N)c2ccccc2[n+]1CCCCCCCCCC[n+]1c(C)cc(N)c2ccccc21 [dequalinium chloride] | -0.431
33 | OC[C@@H](O)C(O[C@@H]1O[C@H](CO)[C@H](O)[C@H](O)[C@H]1O)[C@H](O)[C@@H](O)CO (stereo partly drawn) [d-lactitol monohydrate] | 0.265
34 | Oc1ccc(Cl)c2c1CCC2 [chlorindanol] | 0.571
35 | COc1cc2c3cc1Oc1cc(ccc1O)C[C@@H]1c4c(cc(OC)c(O)c4Oc4ccc(cc4)C[C@@H]3N(C)CC2)CC[N+]1(C)C [tubocurarine chloride] | 0.514
36 | COc1ccc(Cl)cc1C(=O)NCCc1ccc(S(=O)(=O)NC(=O)NC2CCCCC2)cc1 [Glibenclamide] | -0.515
37 | CC(=O)OCC(=O)[C@H]1CC[C@H]2[C@@H]3CCC4=CC(=O)CC[C@]4(C)[C@H]3CC[C@]12C [desoxycorticosterone acetate] | 0.838
38 | CC(C)CCCC(C)NC(C)C (stereo not drawn) [iproheptine] | 0.0959
39 | CC1(C)[C@@H](OC(=O)CCC(=O)O)CC[C@]2(C)[C@H]3C(=O)C=C4[C@@H]5C[C@@](C)(C(=O)O)CC[C@]5(C)CC[C@@]4(C)[C@]3(C)CC[C@@H]12 [carbenoxolone sodium] | 0.187
40 | CCN(CC)CCOCCOC(=O)C(CC)(CC)c1ccccc1 [oxelaidin citrate] | 0.45
41 | CCN(CC)CCOc1ccc(/C(=C(\Cl)c2ccccc2)c2ccccc2)cc1 [clomiphene citrate] | 0.392
42 | O=C(O)C1CSCN1 (stereo not drawn) [timonacic] | 0.268
43 | CCCCc1oc2ccccc2c1C(=O)c1cc(I)c(OCCN(CC)CC)c(I)c1 [Amiodarone hydrochloride] | 0.249
44 | CC[C@@H](CO)NCCN[C@@H](CC)CO [ethambutol hydrochloride] | -0.221
45 | C[C@]1(Cn2ccnn2)[C@H](C(=O)O)N2C(=O)C[C@H]2S1(=O)=O [tazobactam] | -0.454
46 | CC(=O)OCC(=O)[C@@]1(OC(C)=O)[C@@H](C)C[C@H]2[C@@H]3C[C@H](F)C4=CC(=O)C=C[C@]4(C)[C@@]3(F)[C@@H](O)C[C@@]21C [diflorasone diacetate] | -2.13
47 | COc1cc(NC(C)CCCN)c2ncccc2c1 (stereo not drawn) [primaquine diphosphate] | 1.12
48 | CCOc1ccc(NC(C)=O)cc1 [phenacetin] | -1.32
49 | Nc1ncnc2c1ncn2[C@@H]1O[C@H](CO)[C@@H](O)[C@@H]1O [vidarabine] | 0.593
50 | CCC1=C(C)CN(C(=O)NCCc2ccc(S(=O)(=O)NC(=O)N[C@H]3CC[C@H](C)CC3)cc2)C1=O [glimepiride] | 0.398
51 | COc1ccc2cc([C@H](C)CO)ccc2c1 [naproxol] | 0.0688
52 | Cc1c(Cl)cccc1Nc1ccccc1C(=O)O [tolfenamic acid] | -0.0448

Row | SMILES | MUC1 transcript change (Z-score)
53 | Cc1cc(=O)oc2cc(O)ccc12 [hymechrome] | -0.132
54 | CO/C(O)=C1\C(C)=NC(C)=C(C(=O)OC(C)C)C1c1cccc2nonc12 (stereo not drawn) [isradipine] | -0.0974
55 | COc1ccc2c3c1O[C@H]1C[C@@H](O)C=C[C@@]31CCN(C)C2 [galanthamine hydrobromide] | -0.101
56 | O=C(O)COC(=O)Cc1ccccc1Nc1c(Cl)cccc1Cl [aceclofenac] | 0.481
57 | Nc1nc(NC2CC2)c2ncn([C@H]3C=C[C@@H](CO)C3)c2n1 [abacavir sulfate] | -1.2
58 | CC(C)c1nc(CN(C)C(=O)N[C@H](C(=O)N[C@@H](Cc2ccccc2)C[C@H](O)[C@H](Cc2ccccc2)NC(=O)OCc2cncs2)C(C)C)cs1 [ritonavir] | 0.437
59 | CCOc1ccc2nc3cc(N)ccc3c(N)c2c1 [ethacridine lactate] | -2.48
60 | CN1CCCCC1CCN1c2ccccc2Sc2ccc(S(C)=O)cc21 (stereo not drawn) [mesoridazine besylate] | -0.383
61 | O=C(O)CCC(=O)OC[C@@H](NC(=O)C(Cl)Cl)[C@H](O)c1ccc([N+](=O)[O-])cc1 [chloramphenicol hemisuccinate] | 0.685
62 | CCCCCCCCCCCCCCCCOP(=O)([O-])OCC[N+](C)(C)C [miltefosine] | -0.561
63 | CCNC1CN(CCCOC)S(=O)(=O)c2sc(S(N)(=O)=O)cc21 (stereo not drawn) [brinzolamide] | 0.907
64 | O=C(O)CCc1nc(-c2ccccc2)c(-c2ccccc2)o1 [oxaprozin] | -0.0796
65 | C[C@]12CC[C@@H]3c4ccc(OS(=O)(=O)O)cc4CC[C@H]3[C@@H]1CCC2=O [estropipate] | 0.789
66 | Nc1ccc(S(=O)(=O)Nc2ccc(Cl)nn2)cc1 [sulfachlorpyridazine] | -0.0787
67 | CC(C)(C)CC(C)(C)c1ccc(O)c(Cc2ccc(Cl)cc2Cl)c1 [clofoctol] | 0.589
68 | CCOC(=O)c1ccc(N)cc1 [benzocaine] | 1.03
69 | CN1CCC(=C2c3ccccc3CCc3cccnc32)CC1 [azatadine maleate] | 0.879
70 | N#Cc1ccc2[nH]cc(CCCCN3CCN(c4ccc5oc(C(N)=O)cc5c4)CC3)c2c1 [vilazodone hydrochloride] | 0.0103
71 | C[C@H](CCC(=O)O)[C@H]1CCC2C3C(CC[C@@]21C)[C@@]1(C)CC[C@@H](O)C[C@H]1C[C@H]3O (stereo partly drawn) [chenodiol] | 0.207
72 | CCCc1nc(C(C)(C)O)c(C(=O)O)n1Cc1ccc(-c2ccccc2-c2nn[nH]n2)cc1 [olmesartan] | 0.248
73 | CCCCC1=NC2(CCCC2)C(=O)N1Cc1ccc(-c2ccccc2-c2nn[nH]n2)cc1 [irbesartan] | 0.35
74 | NC(Cc1c[nH]c2ccccc12)C(=O)O (stereo not drawn) [tryptophan] | 0.142
75 | C[C@]12C=CC(=O)C=C1CCC1C2C(=O)C[C@@]2(C)C1CC[C@]2(O)C(=O)CO (stereo partly drawn) [prednisone] | 0.257
76 | O=C(O)[C@H]1/C(=C/CO)O[C@@H]2CC(=O)N21 [clavulanate lithium] | 0.722
77 | Nc1nc(S)c2[nH]cnc2n1 [thioguanine] | -2.3
78 | OC[C@H]1O[C@H](O[C@H]2[C@H](O)[C@@H](O)[C@H](O)O[C@@H]2CO)[C@H](O)[C@@H](O)[C@@H]1O [d-(+)-maltose] | 0.372
